Experimental findings from article PMC11926245, “Structural recognition and stabilization of tyrosine hydroxylase by the J-domain protein DNAJC12” (Nature Communications, 2025) are described below.

Chains of the proteins cited; added tags and fusions are not shown. Lines headed by an entry give the natural chain unless they say otherwise; changes in a name come on top. A line that says so, or that is headed by a name, gives the form on record, which may keep a tag or linker.
Tyrosine hydroxylase, wild-type (hTH1) (P07101, form named): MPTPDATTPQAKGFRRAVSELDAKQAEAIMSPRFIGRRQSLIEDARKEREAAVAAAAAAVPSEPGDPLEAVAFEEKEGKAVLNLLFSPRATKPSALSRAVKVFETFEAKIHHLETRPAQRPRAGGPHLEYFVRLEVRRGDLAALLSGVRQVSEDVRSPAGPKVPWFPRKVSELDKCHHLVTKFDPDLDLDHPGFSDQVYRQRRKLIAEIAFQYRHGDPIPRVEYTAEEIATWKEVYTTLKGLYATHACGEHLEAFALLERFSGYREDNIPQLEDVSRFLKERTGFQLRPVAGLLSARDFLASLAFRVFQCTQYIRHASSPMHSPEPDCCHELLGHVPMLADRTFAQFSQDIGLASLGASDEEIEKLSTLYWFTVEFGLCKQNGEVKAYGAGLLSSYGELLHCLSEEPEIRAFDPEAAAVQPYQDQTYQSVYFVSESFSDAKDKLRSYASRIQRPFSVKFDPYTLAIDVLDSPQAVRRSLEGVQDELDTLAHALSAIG
UniProt O60884: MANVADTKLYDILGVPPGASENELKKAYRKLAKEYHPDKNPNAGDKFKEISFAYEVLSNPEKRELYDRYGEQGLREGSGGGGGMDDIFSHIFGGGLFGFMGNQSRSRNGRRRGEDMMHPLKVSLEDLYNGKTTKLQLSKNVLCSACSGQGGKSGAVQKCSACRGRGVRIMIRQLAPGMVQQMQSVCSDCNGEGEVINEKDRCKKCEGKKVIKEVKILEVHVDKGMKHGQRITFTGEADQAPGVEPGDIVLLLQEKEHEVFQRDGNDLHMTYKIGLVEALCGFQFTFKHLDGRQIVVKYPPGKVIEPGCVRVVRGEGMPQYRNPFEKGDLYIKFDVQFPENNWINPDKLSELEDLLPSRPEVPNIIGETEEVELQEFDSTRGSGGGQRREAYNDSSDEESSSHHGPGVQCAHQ
UniProt P25685: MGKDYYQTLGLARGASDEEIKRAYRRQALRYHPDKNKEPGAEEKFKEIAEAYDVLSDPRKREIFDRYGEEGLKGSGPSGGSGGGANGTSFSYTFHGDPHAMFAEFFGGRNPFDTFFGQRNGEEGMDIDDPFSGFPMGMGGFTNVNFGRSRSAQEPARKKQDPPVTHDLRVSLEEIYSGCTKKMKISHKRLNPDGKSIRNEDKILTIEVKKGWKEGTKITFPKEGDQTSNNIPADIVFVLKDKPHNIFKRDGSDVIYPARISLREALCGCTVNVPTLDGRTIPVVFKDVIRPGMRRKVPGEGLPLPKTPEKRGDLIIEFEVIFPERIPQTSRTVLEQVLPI

These are yes or no findings as the source states them, for the method shown.

In the assay the target is Tyrosine hydroxylase, wild-type (hTH1) (human) (UniProt P07101). As to the kind of experiment: BLI; biotinylated TH or TH variant immobilised on streptavidin sensors; DNAJC12 or variant 0.01-4 μM in solution; PBS, 0.02% Tween-20, 0.5 mg/mL BSA, 25 °C; responses fitted to a one-site hyperbola; both purified. For orientation: BLI is a label-free optical method that tracks binding on a fibre tip over time.

Consider DNAJA2 (from UniProt O60884 1-412), for which the binding result was “no binding”.
For the substance DNAJB1 (from UniProt P25685 1-340), the binding entry was “no binding”.
